From PubChem BioAssay AID1671190 (National Center for Advancing Translational Sciences (NCATS), 2021)
In all, about 580,000 compounds went through this assay and about 6,100 (1.1%) were called active. The shares of active, inactive and inconclusive entries below differ from those in the screen. Calls come from the whole dose curve; as a rule, active = well fitted inhibition curve with a large enough effect; inconclusive = small, poorly fitted or top-dose-only effect, or another doubt; inactive = no such curve, though single readings can be large or run the other way. Potencies beside an inconclusive call are fits to weak or partial responses and may not hold up.

By UniProt entry, the sequences of proteins in these tests, tags left out.
UniProt P18054, whole entry, looked up: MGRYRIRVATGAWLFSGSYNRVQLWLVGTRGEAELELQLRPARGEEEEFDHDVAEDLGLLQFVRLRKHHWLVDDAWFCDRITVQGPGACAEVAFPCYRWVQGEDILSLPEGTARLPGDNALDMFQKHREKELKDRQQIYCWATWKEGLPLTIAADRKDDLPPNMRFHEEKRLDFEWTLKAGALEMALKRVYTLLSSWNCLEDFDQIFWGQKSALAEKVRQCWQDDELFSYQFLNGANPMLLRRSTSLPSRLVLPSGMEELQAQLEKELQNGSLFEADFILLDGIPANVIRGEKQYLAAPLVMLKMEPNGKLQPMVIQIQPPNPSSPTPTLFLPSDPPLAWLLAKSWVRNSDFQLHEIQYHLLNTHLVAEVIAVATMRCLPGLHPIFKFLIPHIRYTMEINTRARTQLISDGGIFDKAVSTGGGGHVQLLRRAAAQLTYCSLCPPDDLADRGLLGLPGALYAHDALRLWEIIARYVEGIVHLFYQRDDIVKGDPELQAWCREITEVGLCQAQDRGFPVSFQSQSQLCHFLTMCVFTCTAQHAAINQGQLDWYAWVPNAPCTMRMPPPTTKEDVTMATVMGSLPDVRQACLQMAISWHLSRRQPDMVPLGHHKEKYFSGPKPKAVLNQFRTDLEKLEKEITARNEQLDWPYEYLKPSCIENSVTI

molecular target: Polyunsaturated fatty acid lipoxygenase ALOX12 (Homo sapiens) (UniProt P18054); experiment: Primary qHTS assay for inhibitors of human arachidonate 12S-lipoxygenase (ALOX12): Round 2; settings: purified 12hLO, xylenol orange hydroperoxide absorbance; activity change, negative = inhibition: at 108 µM (top of the series) unless noted
Method in brief: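 Purified human 12hLO (150 nM final) in 25 mM Hepes, 0.01% Triton X-100, pH 7.0 was preincubated 15 min at room temperature with compound. Then 40 uM arachidonic acid was added, 30 min. Hydroperoxide was read by Fe-XO absorbance ratio 573/405 nm.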
% is set by controls: 0 for no effect and ±100 for the full control effect; potency is the fitted concentration of half-maximal effect.

SMILES | Potency | activity change, negative = inhibition
Cc1ccc2c(C)c(CCC(=O)NC3CCN(C)CC3)c(=O)oc2c1 | inconclusive: 112 µM [inhibitor, single point] | –
Cn1c2ccccc2c(=O)c2cc(C#CC3=CCCCC3)ccc21 | – | inactive: -27.8%
CC(=O)N1CC2(CCN(CCS(C)(=O)=O)CC2)CC1C(=O)O (stereo not drawn) | inconclusive: 14.1 µM [inhibitor, full curve] | –
O=C(NCC(c1ccco1)N1CCOCC1)c1cc(=O)c2cc(Cl)ccc2o1 (stereo not drawn) | inconclusive: 5.01 µM [inhibitor, full curve, poor fit] | –
COc1cccc(C(=O)OCC(=O)N2CCc3ccccc3C2)c1 | inconclusive: 22.4 µM [inhibitor, full curve, poor fit] | –
Cc1cc(OCC(=O)NNC(=S)NCC2CCCO2)cc(C)c1Cl (stereo not drawn) | – | inactive: -6.36%
Cc1ccc(C)c(S(=O)(=O)Nc2cccc3cccnc23)c1 | – | inactive: 28.8%
O=C(c1ccccc1Cl)N1CCCC(c2nc3c(nnn3Cc3ccc(F)cc3F)c(=O)[nH]2)C1 (stereo not drawn) | inconclusive: 158 µM [inhibitor, partial curve, poor fit] | –
Cc1ccc(N=Nc2[nH]c3ccccc3c2O)cc1 | inconclusive: 50.1 µM [inhibitor, partial curve, poor fit] | –
Cc1c(C)n(CCc2ccccc2)c2ncnc(NCCCN(C)C)c12 | – | inactive: 1.91%
C=CCN(c1ccccc1)S(=O)(=O)c1ccc2[nH]cc(C(=O)NCCOC)c(=O)c2c1 | inconclusive: 50.1 µM [inhibitor, partial curve, poor fit] | –
Cc1nn(CCO)c(C)c1NC(=O)CCc1cc2n(n1)CCCNC2 | inconclusive: 8.91 µM [inhibitor, full curve] | –
CCN1CCN(C(=O)CN2C(=O)c3cccc4cccc2c34)CC1 | – | inactive: 15%
CCOc1ccc(CNC(=O)c2c(C)sc3ccn(C)c(=O)c23)cc1 | inconclusive: 25.1 µM [inhibitor, full curve, poor fit] | –
O=C(c1ccncc1)N1CCC2(CC1)CCN(c1cccc(-c3ccccc3)c1)CC2 | inconclusive: 31.6 µM [inhibitor, single point] | –
CC(=O)N1CCc2c(sc(NC(=O)C3CC3)c2-c2nc3ccccc3s2)C1 | inconclusive: 39.8 µM [inhibitor, partial curve, poor fit] | –
CCOC(=O)C1CCN(CC(=O)c2c(C)[nH]c3cc(C)ccc23)CC1 | inconclusive: 50.1 µM [inhibitor, single point] | –
Cc1cccc(NC(=O)CSc2ncc3c(n2)-c2cc(Cl)ccc2N(C)S3(=O)=O)c1C | inconclusive: 100 µM [inhibitor, partial curve, poor fit] | –
C=CCn1cc(C(=O)OCC)c(=O)c2cc(F)c(F)cc21 | inconclusive: 100 µM [inhibitor, partial curve, poor fit] | –
N#C/C(=C/c1cccn1-c1cccc(C(=O)O)c1)c1ccc(Cl)cc1 | active: 44.7 µM | –
COc1cc(NC(=S)N2CCN(C(=O)c3ccco3)CC2)c(OC)cc1Cl | – | inactive: -14.7%
Cc1cc(OCCN2CCCC2)ccc1[N+](=O)[O-] | inconclusive: 0.447 µM [inhibitor, full curve, poor fit] | –
C=CCc1cccc(CNc2nc3ccccc3n2C)c1O | active: 31.6 µM | –

SMILES | Potency | activity change, negative = inhibition
CCOC(=O)C1=C(C)NC(=O)NC1c1ccoc1 (stereo not drawn) | inconclusive: 158 µM [inhibitor, partial curve, poor fit] | –
Cc1nc(Cc2nn3c(-c4ccc(F)c(Br)c4)nnc3s2)cs1 | inconclusive: 35.5 µM [inhibitor, partial curve, poor fit] | –
COc1cccc(N2C(=O)c3cc4occc4n3CC2(C)C(=O)NC2CCCCCC2)c1 (stereo not drawn) | inconclusive: 39.8 µM [inhibitor, partial curve] | –
Cc1nc(CC(=O)NCc2ccc3[nH]c(-c4ccc(F)cc4)c(C)c3c2)cs1 | – | inactive: 58.6%
CCOc1ccc(C(=O)c2ccc(Cl)cc2)cc1 | – | inactive: 2.71%
CCOC(=O)C(NC(=O)/C=C/c1c(F)cccc1Cl)C(=O)OCC | – | inactive: -6.7%
COC(=O)c1ccc(C2c3c(-c4ccc(Br)cc4)n[nH]c3C(=O)N2c2ccc(Cl)cc2)cc1 (stereo not drawn) | – | inactive: -23.1%
CN1C(=O)CCC2(CNC(=O)c3ccc(Cn4ccnc4)o3)CCC=C12 (stereo not drawn) | – | inactive: 0.501%
Cc1cc(NC(=O)CSCC(=O)Nc2nc3ccc(F)cc3s2)no1 | inconclusive: 126 µM [inhibitor, partial curve, poor fit] | –
Cc1ccc(Nc2ccc([N+](=O)[O-])ccc2=O)cc1 | inconclusive: 35.5 µM [inhibitor, single point] | –
COc1ccc2[nH]cc(CCNc3ccnc(-c4ccccc4C(F)(F)F)n3)c2c1 | inconclusive: 44.7 µM [inhibitor, partial curve] | –
Cc1cc(/C=C2\SC(=O)N(C)C2=O)c(C)n1-c1cccc(C(=O)O)c1 | inconclusive: 44.7 µM [inhibitor, partial curve, poor fit] | –
COc1cc(/C=C2\SC(=O)N(Cc3ccc(F)cc3)C2=O)cc([N+](=O)[O-])c1O | inconclusive: 22.4 µM [inhibitor, single point] | –
C#CCNC(=O)c1cc(-c2ccccc2)nc2ccccc12 | – | inactive: -1.71%
O=C(N/N=C/c1ccc(O)c(O)c1)c1cccc(S(=O)(=O)N2CCCCC2)c1 | inconclusive: 3.55 µM [inhibitor, full curve, poor fit] | –
O=c1[nH]nc(SCc2ncc(-c3cccc(Cl)c3)o2)n1C1CC1 | inconclusive: 1.12 µM [inhibitor, full curve, poor fit] | –
CCOC(=O)c1ccccc1NC(=O)Cn1c(=O)n(Cc2ccc(C)cc2)c(=O)c2ccccc21 | inconclusive: 100 µM [inhibitor, single point] | –
CCNc1ncc2nc(-c3ccc(OC)cc3)c(=O)n(CCC#N)c2n1 | inconclusive: 22.4 µM [inhibitor, partial curve, poor fit] | –
Fc1cccc(-c2nc(COc3ccc(Br)cc3F)co2)c1 | active: 31.6 µM | –
Oc1ccc(O)c(Cc2nc3ccccc3s2)c1 | inconclusive: 22.4 µM [inhibitor, partial curve] | –
O=C(CCCl)Nc1ccc2c(c1)CCC2 | – | inactive: 10.7%
COc1cc(OC)cc(C(=O)N2CCC(N3CCN(c4ccccc4)CC3)CC2)c1 | inconclusive: 0.316 µM [inhibitor, full curve, poor fit] | –
CCN(CC)C(=O)COc1ccc(-c2noc(-c3ccccc3)n2)cc1OC | – | inactive: 2.83%

SMILES | Potency | activity change, negative = inhibition
COc1ccc(CN2C3CCC2CC(NC(=O)c2cccc(F)c2)C3)cc1 (stereo not drawn) | inconclusive: 89.1 µM [inhibitor, single point] | –
CN1CCN(S(=O)(=O)c2cccc([N+](=O)[O-])c2)CC1 | – | inactive: 0.225%
Cc1cccc(C(=O)N2CCCC(c3noc(COc4ccccc4F)n3)C2)c1 (stereo not drawn) | inconclusive: 22.4 µM [inhibitor, full curve, poor fit] | –
CC(C)(C)c1nnc(Nc2cc(Cl)ccc2Cl)[nH]c1=O | – | inactive: 0.692%
COc1ccc(N(CC(=O)Nc2ccccc2C(F)(F)F)C2=NC3CS(=O)(=O)CC3S2)cc1 (stereo not drawn) | – | inactive: -1.25%
CCOc1cc(C=NN2CCCCCC2)ccc1O | inconclusive: 50.1 µM [inhibitor, partial curve, poor fit] | –
CCC(C)NC(=O)C1COC2(CCN(C(=O)c3ccc(F)cc3F)CC2)N1C(=O)c1ccccc1 (stereo not drawn) | – | inactive: 5.84%
Cc1ccc2nc(-c3ccc(SCC(=O)N4CCc5ccccc54)nc3)[nH]c2c1 | – | inactive: -16.1%
COCCN=c1scc(-c2cc(OC)ccc2OC)n1/N=C/c1c[nH]c2ccccc12 | inconclusive: 89.1 µM [inhibitor, partial curve, poor fit] | –
COc1ccc(S(=O)(=O)N2CCc3ccccc32)cc1C(=O)N1CCN(C(=O)c2ccco2)CC1 | inconclusive: 112 µM [inhibitor, partial curve, poor fit] | –
O=c1cc(-c2cccc(Br)c2)oc2cccc(O)c12 | – | inactive: -15%
CC(C)(C)C(=O)N1CCN(c2c(Cl)cccc2[N+](=O)[O-])CC1 | inconclusive: 112 µM [inhibitor, partial curve, poor fit] | –
O=C(NC(Sc1ccc(Cl)cc1)C(=O)O)c1ccccc1 (stereo not drawn) | inconclusive: 56.2 µM [inhibitor, partial curve, poor fit] | –
Cn1c(=O)c2nc(SCC(=O)c3ccc(Cl)cc3)n(C)c2n(C)c1=O | inconclusive: 44.7 µM [inhibitor, partial curve, poor fit] | –
Cc1ccc2c(c1)/C(=N/N1C(=O)c3ccccc3C1=O)C(=O)N2 | – | inactive: -25.6%
Cc1c(Cl)ccc(S(=O)(=O)NCCCO)c1Cl | inconclusive: 44.7 µM [inhibitor, partial curve, poor fit] | –
Cc1ccc(NC(=O)CN2CCC(NC(=O)c3ccccc3F)CC2)cc1C | – | inactive: 2.31%
CCN1C(=O)N[C@@H](CCc2ccccc2)[C@H](C(C)=O)[C@H]1C | inconclusive: 44.7 µM [inhibitor, partial curve, poor fit] | –
CCOc1cc2c(c3c1C(c1ccccc1)N(S(=O)(=O)c1ccc(C)cc1)C3)C(=O)C=CC2=O (stereo not drawn) | active: 1.12 µM | –
COC(=O)N(C)C[C@@H]1OCc2cnnn2CCCC(=O)N([C@@H](C)CO)C[C@H]1C | inconclusive: 44.7 µM [inhibitor, single point] | –
Nc1nccnc1C(=O)NCCc1ccccc1F | inconclusive: 126 µM [inhibitor, single point] | –
COc1cc(C(=O)OCCCOC(=O)c2cc(OC)c(OC)c(OC)c2)cc(OC)c1OC | inconclusive: 50.1 µM [inhibitor, partial curve, poor fit] | –

Some of these compounds in order of formula weight, descending.
SMILES | Potency | activity change, negative = inhibition
COc1ccc(N(CC(=O)Nc2ccccc2C(F)(F)F)C2=NC3CS(=O)(=O)CC3S2)cc1 (stereo not drawn) | – | inactive: -1.25%
COc1ccc(S(=O)(=O)N2CCc3ccccc32)cc1C(=O)N1CCN(C(=O)c2ccco2)CC1 | inconclusive: 112 µM [inhibitor, partial curve, poor fit] | –
CCC(C)NC(=O)C1COC2(CCN(C(=O)c3ccc(F)cc3F)CC2)N1C(=O)c1ccccc1 (stereo not drawn) | – | inactive: 5.84%
O=c1cc(-c2cccc(Br)c2)oc2cccc(O)c12 | – | inactive: -15%
Nc1nccnc1C(=O)NCCc1ccccc1F | inconclusive: 126 µM [inhibitor, single point] | –
